Laboratory results as given in paper PMC6715699.
Results are given in words; binding and its absence hold for the method and conditions named. In cells and extracts the contact can be indirect. Some binding calls cover weakened binding; strength is not graded here.

Amino acid sequences for entries named in this document (tags omitted). A change or cut given only in a name is not applied to a line headed by its entry. Chains listed by the source or under a name are the forms on record and can include a tag or linker. Residues count along the entry.
UniProt Q06330: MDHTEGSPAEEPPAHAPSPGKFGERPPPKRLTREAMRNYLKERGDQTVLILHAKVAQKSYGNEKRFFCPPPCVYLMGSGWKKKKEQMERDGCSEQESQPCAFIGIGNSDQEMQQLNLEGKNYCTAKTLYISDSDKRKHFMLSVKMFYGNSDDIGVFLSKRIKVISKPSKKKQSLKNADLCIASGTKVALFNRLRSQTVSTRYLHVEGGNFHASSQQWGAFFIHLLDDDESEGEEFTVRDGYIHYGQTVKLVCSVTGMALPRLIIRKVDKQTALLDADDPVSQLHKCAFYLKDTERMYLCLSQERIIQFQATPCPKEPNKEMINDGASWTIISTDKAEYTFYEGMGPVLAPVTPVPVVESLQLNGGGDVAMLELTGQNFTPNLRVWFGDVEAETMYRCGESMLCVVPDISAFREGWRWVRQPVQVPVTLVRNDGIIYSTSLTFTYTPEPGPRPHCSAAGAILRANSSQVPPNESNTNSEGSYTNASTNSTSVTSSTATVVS
FLAG-tagged CSL BTD (166–334): residues 166-334 of Q06330

Columns and labels:
[1] = target: FLAG-tagged CSL BTD (166–334) (human) (UniProt Q06330); assay: co-IP; HEK293T cells expressing FLAG-tagged CSL FL, BTD or point mutants plus/minus FL UPF1 or FL Ku70; anti-FLAG M2 magnetic beads, immunoblotting
[2] = target: FLAG-tagged full length (FL) CSL (human) (UniProt Q06330); assay: as above
[3] = target: CSL (RBP-Jκ), endogenous (human (endogenous in HDFs)) (UniProt Q06330); assay: proximity ligation; Duolink PLA kit on fixed HDFs; HDFs with silenced CSL as negative control
[4] = target: CSL (RBP-Jκ), endogenous (human (endogenous in HDFs)) (UniProt Q06330); assay: co-IP; HDF lysates, anti-CSL antibodies or non-immune IgG, immunoblotting; endogenous proteins
[5] = target: FLAG-tagged CSL A258R (human) (UniProt Q06330); assay: co-IP; HEK293T cells expressing FLAG-tagged CSL FL, BTD or point mutants plus/minus FL UPF1 or FL Ku70; anti-FLAG M2 magnetic beads, immunoblotting
[6] = target: FLAG-tagged CSL F235R (human) (UniProt Q06330); assay: as above
[7] = target: FLAG-tagged CSL Q307R (human) (UniProt Q06330); assay: as above
[8] = target: FLAG-tagged CSL R192H (human) (UniProt Q06330); assay: as above

Measured: binding

B1: full length (FL) UPF1, expressed in HEK293T (protein, UniProt Q92900 1-1129)
chain: MSVEAYGPSSQTLTFLDTEEAELLGADTQGSEFEFTDFTLPSQTQTPPGGPGGPGGGGAGGPGGAGAGAAAGQLDAQVGPEGILQNGAVDDSVAKTSQLLAELNFEEDEEDTYYTKDLPIHACSYCGIHDPACVVYCNTSKKWFCNGRGNTSGSHIVNHLVRAKCKEVTLHKDGPLGETVLECYNCGCRNVFLLGFIPAKADSVVVLLCRQPCASQSSLKDINWDSSQWQPLIQDRCFLSWLVKIPSEQEQLRARQITAQQINKLEELWKENPSATLEDLEKPGVDEEPQHVLLRYEDAYQYQNIFGPLVKLEADYDKKLKESQTQDNITVRWDLGLNKKRIAYFTLPKTDSGNEDLVIIWLRDMRLMQGDEICLRYKGDLAPLWKGIGHVIKVPDNYGDEIAIELRSSVGAPVEVTHNFQVDFVWKSTSFDRMQSALKTFAVDETSVSGYIYHKLLGHEVEDVIIKCQLPKRFTAQGLPDLNHSQVYAVKTVLQRPLSLIQGPPGTGKTVTSATIVYHLARQGNGPVLVCAPSNIAVDQLTEKIHQTGLKVVRLCAKSREAIDSPVSFLALHNQIRNMDSMPELQKLQQLKDETGELSSADEKRYRALKRTAERELLMNADVICCTCVGAGDPRLAKMQFRSILIDESTQATEPECMVPVVLGAKQLILVGDHCQLGPVVMCKKAAKAGLSQSLFERLVVLGIRPIRLQVQYRMHPALSAFPSNIFYEGSLQNGVTAADRVKKGFDFQWPQPDKPMFFYVTQGQEEIASSGTSYLNRTEAANVEKITTKLLKAGAKPDQIGIITPYEGQRSYLVQYMQFSGSLHTKLYQEVEIASVDAFQGREKDFIILSCVRANEHQGIGFLNDPRRLNVALTRARYGVIIVGNPKALSKQPLWNHLLNYYKEQKVLVEGPLNNLRESLMQFSKPRKLVNTINPGARFMTTAMYDAREAIIPGSVYDRSSQGRPSSMYFQTHDQIGMISAGPSHVAAMNIPIPFNLVMPPMPPPGYFGQANGPAAGRGTPKGKTGRGGRQKNRFGLPGPSQTNLPNSQASQDVASQPFSQGALTQGYISMSQPSQMSQPGLSQPELSQDSYLGDEFKSQIDVALSQDSTYQGERAYQHGGVTGLSQY
binds: [1] | [2]

B2: UPF1 (Up-Frameshift Suppressor 1 Homolog), endogenous (protein, UniProt Q92900 1-1129)
chain: MSVEAYGPSSQTLTFLDTEEAELLGADTQGSEFEFTDFTLPSQTQTPPGGPGGPGGGGAGGPGGAGAGAAAGQLDAQVGPEGILQNGAVDDSVAKTSQLLAELNFEEDEEDTYYTKDLPIHACSYCGIHDPACVVYCNTSKKWFCNGRGNTSGSHIVNHLVRAKCKEVTLHKDGPLGETVLECYNCGCRNVFLLGFIPAKADSVVVLLCRQPCASQSSLKDINWDSSQWQPLIQDRCFLSWLVKIPSEQEQLRARQITAQQINKLEELWKENPSATLEDLEKPGVDEEPQHVLLRYEDAYQYQNIFGPLVKLEADYDKKLKESQTQDNITVRWDLGLNKKRIAYFTLPKTDSGNEDLVIIWLRDMRLMQGDEICLRYKGDLAPLWKGIGHVIKVPDNYGDEIAIELRSSVGAPVEVTHNFQVDFVWKSTSFDRMQSALKTFAVDETSVSGYIYHKLLGHEVEDVIIKCQLPKRFTAQGLPDLNHSQVYAVKTVLQRPLSLIQGPPGTGKTVTSATIVYHLARQGNGPVLVCAPSNIAVDQLTEKIHQTGLKVVRLCAKSREAIDSPVSFLALHNQIRNMDSMPELQKLQQLKDETGELSSADEKRYRALKRTAERELLMNADVICCTCVGAGDPRLAKMQFRSILIDESTQATEPECMVPVVLGAKQLILVGDHCQLGPVVMCKKAAKAGLSQSLFERLVVLGIRPIRLQVQYRMHPALSAFPSNIFYEGSLQNGVTAADRVKKGFDFQWPQPDKPMFFYVTQGQEEIASSGTSYLNRTEAANVEKITTKLLKAGAKPDQIGIITPYEGQRSYLVQYMQFSGSLHTKLYQEVEIASVDAFQGREKDFIILSCVRANEHQGIGFLNDPRRLNVALTRARYGVIIVGNPKALSKQPLWNHLLNYYKEQKVLVEGPLNNLRESLMQFSKPRKLVNTINPGARFMTTAMYDAREAIIPGSVYDRSSQGRPSSMYFQTHDQIGMISAGPSHVAAMNIPIPFNLVMPPMPPPGYFGQANGPAAGRGTPKGKTGRGGRQKNRFGLPGPSQTNLPNSQASQDVASQPFSQGALTQGYISMSQPSQMSQPGLSQPELSQDSYLGDEFKSQIDVALSQDSTYQGERAYQHGGVTGLSQY
binds: [3] | [4]

B3: UPF1 in HEK293T cells (Fig. 8d) (protein, UniProt Q92900 1-1129)
chain: MSVEAYGPSSQTLTFLDTEEAELLGADTQGSEFEFTDFTLPSQTQTPPGGPGGPGGGGAGGPGGAGAGAAAGQLDAQVGPEGILQNGAVDDSVAKTSQLLAELNFEEDEEDTYYTKDLPIHACSYCGIHDPACVVYCNTSKKWFCNGRGNTSGSHIVNHLVRAKCKEVTLHKDGPLGETVLECYNCGCRNVFLLGFIPAKADSVVVLLCRQPCASQSSLKDINWDSSQWQPLIQDRCFLSWLVKIPSEQEQLRARQITAQQINKLEELWKENPSATLEDLEKPGVDEEPQHVLLRYEDAYQYQNIFGPLVKLEADYDKKLKESQTQDNITVRWDLGLNKKRIAYFTLPKTDSGNEDLVIIWLRDMRLMQGDEICLRYKGDLAPLWKGIGHVIKVPDNYGDEIAIELRSSVGAPVEVTHNFQVDFVWKSTSFDRMQSALKTFAVDETSVSGYIYHKLLGHEVEDVIIKCQLPKRFTAQGLPDLNHSQVYAVKTVLQRPLSLIQGPPGTGKTVTSATIVYHLARQGNGPVLVCAPSNIAVDQLTEKIHQTGLKVVRLCAKSREAIDSPVSFLALHNQIRNMDSMPELQKLQQLKDETGELSSADEKRYRALKRTAERELLMNADVICCTCVGAGDPRLAKMQFRSILIDESTQATEPECMVPVVLGAKQLILVGDHCQLGPVVMCKKAAKAGLSQSLFERLVVLGIRPIRLQVQYRMHPALSAFPSNIFYEGSLQNGVTAADRVKKGFDFQWPQPDKPMFFYVTQGQEEIASSGTSYLNRTEAANVEKITTKLLKAGAKPDQIGIITPYEGQRSYLVQYMQFSGSLHTKLYQEVEIASVDAFQGREKDFIILSCVRANEHQGIGFLNDPRRLNVALTRARYGVIIVGNPKALSKQPLWNHLLNYYKEQKVLVEGPLNNLRESLMQFSKPRKLVNTINPGARFMTTAMYDAREAIIPGSVYDRSSQGRPSSMYFQTHDQIGMISAGPSHVAAMNIPIPFNLVMPPMPPPGYFGQANGPAAGRGTPKGKTGRGGRQKNRFGLPGPSQTNLPNSQASQDVASQPFSQGALTQGYISMSQPSQMSQPGLSQPELSQDSYLGDEFKSQIDVALSQDSTYQGERAYQHGGVTGLSQY
binds: [5] | [6] | [7] | [8] | [2]
